Source: US10000534B2 (CAREGEN CO., LTD., priority 2014, dated 2018)
Ends that are not written are not given here.

Assays:
[1] = general procedure: Fmoc solid-phase peptide synthesis; chloro trityl chloride resin (CTL resin, Nova Biochem Cat No. 01-64-0021); HoBt/Bop/DIEA; details: whole synthesis, scale of the general procedure 700 mg of resin
[2] = general procedure: Fmoc solid-phase peptide synthesis; chloro trityl chloride resin; HoBt/Bop/DIEA; details: whole synthesis

| Sequence | crude yield [1] | crude mass [2] | crude yield ([2]; scale of the general procedure 700 mg of resin) |
| --- | --- | --- | --- |
| FDMGAYKSSK | 92.1% |  |  |
| RSLNLRDSQKS |  | 0.85 g | 89.9% |
